At least one compound was matched to its structure with a doubt left.
Key:
[1] = tested on: newly diagnosed GBM patients; settings: TMZ added to surgery and radiation (12.1 months for surgery and radiation only); cited from earlier work
[2] = Solubility of TSC in water with gamma-cyclodextrin; format: physicochemical

SMILES | median survival [1] [months] | increase of solubility of TSC in water [2]
Cn1nnc2c(C(N)=O)ncn2c1=O [TMZ, temozolomide] | 14.6 | –
CC(/C=C/C=C(\C)C(=O)[O-])=C\C=C\C=C(C)\C=C\C=C(/C)C(=O)[O-].[Na+].[Na+] [TSC, trans sodium crocetinate] | – | 3-7 times

— US11185523B2, “Use of bipolar trans carotenoids with chemotherapy and radiotherapy for treatment of cancer” (DIFFUSION PHARMACEUTICALS LLC, priority 2016, dated 2021)
